Reference: PubChem BioAssay AID540276 (National Center for Advancing Translational Sciences (NCATS), 2011)
Screen size: about 300,000 compounds; about 5,400 (1.8%) were called active. Inconclusive means that the source gave no clear call. Such entries were picked first, then a sample of the others. Calls come from the whole dose curve; tested in HEK293 cells. Potencies of inconclusive entries are doubtful fits and often do not repeat.

Assay: qHTS for inhibitors of binding or entry into cells for Marburg Virus
Conditions: Marburg virus pseudotyped entry inhibition, cell reporter; activity change, negative = inhibition: at 37.8 µM (top of the series) unless noted
% is set by controls: 0 for no effect and ±100 for the full control effect; potency is the fitted concentration of half-maximal effect.

| SMILES | Potency | activity change, negative = inhibition |
| --- | --- | --- |
| COc1ccc(NC(=O)c2sc3nc4c(cc3c2N)CN(Cc2ccccc2)CC4)c(OC)c1 | inactive |  |
| N=c1c2ccccc2nc2n1CCCCCCCCCCC2 | inconclusive: 11.2 µM [inhibitor, partial curve, poor fit] |  |
| CSc1ccc(N2C(=O)NC3(CCCCC3)C2=O)cc1 | inactive |  |
| Cc1ccn2c(CNC(C)c3cn(C)nc3C)c(C(=O)N3CCCCCC3)nc2c1 (stereo not given) | inconclusive: 0.0794 µM [inhibitor, full curve, poor fit] |  |
| CC(C)C(=O)NC(=S)Nc1ccc(S(=O)(=O)Nc2ccccc2)cc1 | inconclusive: 1.26 µM [activator, partial curve, poor fit] |  |
| O=c1[nH]c(=S)n(C2CC2)c(O)c1/C=N/Nc1ccccc1 | inactive |  |
| CNc1ncc(C(=O)c2ccccc2)s1 | inconclusive: 16.4 µM [activator, single point] |  |
| Cc1ccc(Nc2nc(NCc3ccco3)c3ccccc3n2)cc1 | inconclusive: 3.16 µM [inhibitor, full curve, poor fit] |  |
| Cc1ccccc1OCC(O)Cn1c2ccccc2c2ccccc21 (stereo not given) | inconclusive: 29.1 µM [inhibitor, single point] |  |
| Clc1cccc(CON/C=N/c2ncnc3sccc23)c1 | inactive |  |
| OCCC1CN(Cc2nc(-c3ccccc3)cs2)CCN1Cc1ccc(F)cc1 (stereo not given) | inconclusive: 35.5 µM [inhibitor, partial curve, poor fit] |  |
| O=C(CSc1nc2ccccc2c(=O)n1Cc1ccco1)N1CCN(c2ccccc2)CC1 | inconclusive: 17.8 µM [inhibitor, single point] |  |
| O=C(Nc1ccc2c(c1)OCCO2)c1ccccc1 | inconclusive: 5.01 µM [inhibitor, full curve] |  |
| CCOc1ccccc1NC(=O)c1cccc(S(=O)(=O)N(Cc2ccccc2)c2ccccc2OC)c1 | inconclusive: 14.6 µM [inhibitor, partial curve, poor fit] |  |
| O=C(CSc1nc(C2CCCCC2)nc2ccccc12)NCc1ccco1 | inactive |  |
| O=C(Nc1cccc(C(=O)O)c1)/C(=C/c1cccc([N+](=O)[O-])c1)NC(=O)c1cccc(Br)c1 | inconclusive: 35.5 µM [activator, single point] |  |
| COC(=O)c1ccc2c(=O)n(CCCCCC(=O)O)c(=O)[nH]c2c1 | inactive |  |
| O=[N+]([O-])c1cc(S(=O)(=O)Nc2ccccc2)ccc1N1CCN(c2ccccc2)CC1 | inconclusive: 31.6 µM [inhibitor, single point] |  |
| Cc1ccccc1NC(=S)NC(NC(=O)c1ccccc1C)C(Cl)(Cl)Cl (stereo not given) | inconclusive: 0.116 µM [inhibitor, full curve, poor fit] |  |
| CC(=O)Nc1ccc(S(=O)(=O)N2CCN(C(C)CCc3ccccc3)CC2)cc1 (stereo not given) | active: 13 µM |  |
| O=C(c1ccco1)c1nnn(Cc2ccccc2)c1-c1ccccc1 | inactive |  |
| C=CCSC1=N/C(=C\c2cccnc2)C(=O)N1c1ccc(OC)cc1 | inconclusive: 0.112 µM [inhibitor, full curve, poor fit] |  |
| CCOC(=O)N1CCN(C(=O)c2cn(CC)c3ccc(S(=O)(=O)N4CCCC4)cc3c2=O)CC1 | inconclusive: 29.1 µM [activator, single point] |  |
| COc1ccc2[nH]c(=O)c(C(c3nnnn3CC3CCCO3)N3CCc4ccccc4C3)cc2c1 (stereo not given) | inconclusive: 23.1 µM [inhibitor, single point] |  |

An excerpt from above in order of heavy-atom count, smallest number first.

| SMILES | Potency | activity change, negative = inhibition |
| --- | --- | --- |
| O=C(c1ccco1)c1nnn(Cc2ccccc2)c1-c1ccccc1 | inactive |  |
| Cc1ccccc1NC(=S)NC(NC(=O)c1ccccc1C)C(Cl)(Cl)Cl (stereo not given) | inconclusive: 0.116 µM [inhibitor, full curve, poor fit] |  |
| O=C(CSc1nc(C2CCCCC2)nc2ccccc12)NCc1ccco1 | inactive |  |

Additional structures.

| SMILES | Potency | activity change, negative = inhibition |
| --- | --- | --- |
| COc1cc(CN2CCN(C(=O)COc3ccccc3)CC2)cc(OC)c1OC | inconclusive: 5.62 µM [activator, single point] |  |
| CC(=O)Nc1ccc(N2N=C(C)C(N=Nc3ccccc3)C2=O)cc1 (stereo not given) | inactive |  |
| CN(c1ccccc1)S(=O)(=O)c1ccc(NC(=O)c2nc(S(C)(=O)=O)ncc2Cl)cc1 | inconclusive: 35.5 µM [inhibitor, single point] |  |
| CCN1CCN(CCNC(=O)c2ccc3c(c2)N(Cc2ccc(F)cc2)C(=O)c2ccccc2S3=O)CC1 (stereo not given) | inconclusive: 25.1 µM [inhibitor, single point] |  |
| COC(=O)c1nnn(-c2nonc2N)c1CSc1nnc(C)s1 | inconclusive: 0.562 µM [activator, full curve, poor fit] |  |
| COc1ccccc1NC(=O)COC(=O)C1CC2C=CC1C2 (stereo not given) | inactive |  |
| O=C(O)c1cc(S(=O)(=O)Nc2ccc(OCc3ccccc3)cc2)ccc1Br | inactive |  |
| CCOC(=O)C(C)Oc1c(Br)cc(C2NC(=O)NC(C)=C2C(C)=O)cc1OCC (stereo not given) | inactive |  |
| Cc1cc(NC(=O)CCN2CCN(C/C=C/c3ccccc3)CC2)ccc1Br | inconclusive: 25.1 µM [inhibitor, single point] |  |
| CCN(CC)CCn1c(NC(=O)c2ccc(C(F)(F)F)cc2)nc2ccccc21 | inactive |  |
| CC(=O)Nc1ccc2nc(-c3ccc(Br)o3)[nH]c2c1 | inactive |  |
| CCOc1ccc(/C=C/C(=O)c2ccccc2)cc1OC | inactive |  |
| COc1ccccc1OCC(=O)OCC(=O)Nc1ncc(Cl)cc1Cl | inactive |  |
| Cc1nc(C)c(C(=O)C2=C(O)C(=O)N(CCN3CCOCC3)C2c2cccs2)s1 (stereo not given) | inconclusive: 4.11 µM [inhibitor, partial curve, poor fit] |  |
| COc1ccc(Cl)cc1NC(=O)c1cc2c(=O)n3ccccc3nc2s1 | inconclusive: 2.24 µM [activator, full curve, poor fit] |  |
| CCN1CCN(C(=O)CN(CC)S(=O)(=O)c2ccc(F)cc2)CC1 | inactive |  |
| CCOC(=O)/C(C#N)=C/c1ccc(SC)cc1 | inconclusive: 35.5 µM [activator, single point] |  |
| c1cc2c3c(cccc3c1)C(N1CCOCC1)=N2 | inactive |  |
| COc1ccc(CCNC(=O)c2ccc(Cl)c(S(=O)(=O)N(C)c3ccccc3)c2)cc1 | inconclusive: 16.4 µM [inhibitor, partial curve, poor fit] |  |
| CC(C)(C)c1ccc(-c2nc(C#N)c(NCCCn3ccnc3)o2)cc1 | inconclusive: 35.5 µM [inhibitor, single point] |  |
| CCc1cc(C(=O)N2CCN(c3ncccn3)CC2)sc1C | inconclusive: 6.31 µM [activator, single point] |  |
| O=C(Nc1ccc(Cl)cc1)Nc1ccccc1NS(=O)(=O)c1cccs1 | inactive |  |
| CCOC(=O)CC(NC(=O)CCc1c(C)nc2c(-c3ccccc3)c(C)nn2c1C)c1ccc(OC(C)C)cc1 (stereo not given) | inconclusive: 15.8 µM [inhibitor, single point] |  |
| Cc1ccccc1NC(=O)/C(=C/c1ccccc1)c1ccccc1 | inconclusive: 35.5 µM [inhibitor, partial curve, poor fit] |  |

Record cards (already shown).
`O=C(Nc1ccc(Cl)cc1)Nc1ccccc1NS(=O)(=O)c1cccs1` is listed as Potency: inactive
`Cc1ccccc1NC(=O)/C(=C/c1ccccc1)c1ccccc1` is listed as Potency: inconclusive: 35.5 µM [inhibitor, partial curve, poor fit]

Further results follow:

| SMILES | Potency | activity change, negative = inhibition |
| --- | --- | --- |
| Cc1cc(C)nc(Nc2nc(C)c3cc4c(cc3n2)OCO4)n1 | inactive |  |
| CCOC(=O)COc1ccc(C2C(C(=O)OC)=C(C)NC3=C2C(=O)c2ccccc23)cc1Cl (stereo not given) | inactive |  |
| COc1ccc(Cn2c(CCC(=O)NCc3ccc(Cl)cc3)nc3cccnc32)cc1 | inactive |  |
| Cc1cccc(NC(=O)Cn2cc(C(=O)C3CCCCC3)c3ccccc32)c1 | inconclusive: 7.08 µM [inhibitor, partial curve, poor fit] |  |
| COc1cc2nc(NCCCN3CCN(C)CC3)n3nc(-c4ccccc4)nc3c2cc1OC | inconclusive: 7.08 µM [inhibitor, full curve, poor fit] |  |
| COc1ccc(-c2cn(-c3ccc(C)cc3)c(=O)n2CC(=O)Nc2ccc(OC)cc2OC)cc1 | inconclusive: 29.1 µM [inhibitor, single point] |  |
| CN1[C@@H]2CC[C@H]1CC(O[C@@H](c1ccccc1)c1ccc(Cl)cc1)C2 (stereo not given in full) | active: 3.16 µM |  |
| COCCOC(=O)c1c(C)oc2ccc(O)c(CN3CCC(C)CC3)c12 | inconclusive: 23.1 µM [inhibitor, single point] |  |
| CCCCCCCC(=O)NNC(=O)Cc1ccccc1 | inactive |  |
| CC1(C)Cc2c(sc(NC(=O)c3ccc(C(=O)c4ccccc4)cc3)c2C(N)=O)C(C)(C)N1 | inconclusive: 20 µM [inhibitor, single point] |  |
| Cc1cc(C)n(C(=O)COc2ccc(Cl)cc2Cl)n1 | inactive |  |
| CN1C(=O)C(O)(CC(=O)c2ccncc2)c2ccccc21 (stereo not given) | inconclusive: 15.8 µM [inhibitor, single point] |  |
| CC(C)c1ccc(Nc2nc(NCc3ccco3)nc(N3CCOCC3)n2)cc1 | inconclusive: 17.8 µM [inhibitor, partial curve] |  |
| Cc1cccc(C(=O)NCC(=O)N2CCN(S(=O)(=O)c3cc(C)ccc3C)CC2)c1 | inconclusive: 35.5 µM [inhibitor, single point] |  |
| CN(C)C(=O)COc1ncnc2scc(-c3ccc(F)cc3)c12 |  | inconclusive: 27.4% [activator] [at 46.1 µM] |
| Cc1[nH]c2ccccc2c1/C=C/c1nc2ccccc2c(=O)n1-c1ccc([N+](=O)[O-])cc1 | inactive |  |
| Fc1ccc(CCNCc2cccc(Cl)c2)cc1 | inconclusive: 29.1 µM [inhibitor, single point] |  |
| COC(=O)c1[nH]c2ccc(F)cc2c1NS(=O)(=O)c1ccc(OC)cc1 | inconclusive: 1.12 µM [inhibitor, full curve] |  |
| COc1ccc(OC)c(NC(=O)COC(=O)/C=C/c2ccc(Cl)cc2)c1 | inactive |  |
| CC(C)Cn1c(N)c(C(=O)COC(=O)/C=C/c2ccccc2)c(=O)n(C)c1=O | active: 10 µM |  |
| Cc1ccc(S(=O)(=O)NC(=O)c2cc(C)n(CCCN3CCOCC3)c2C)cc1 | inconclusive: 5.62 µM [inhibitor, partial curve, poor fit] |  |
| O=C(CSc1nnc(-c2ccco2)n1CC1CCCO1)c1ccc(F)cc1 (stereo not given) | inconclusive: 14.1 µM [activator, single point] |  |
